Values joined by “and” are separate entries in the source; they are usually repeats but may differ in a detail not shown here. Identical values can stand only once. ± gives the standard deviation of the averaged measurements. Whole data set: some 3,800 compounds, median “cell shape (eccentricity) Z-score vs DMSO control” near 1.1, cut for the lowest 2% near -4.7. The list shows a part of the results.
Tested on: human monocyte-derived macrophages (M0)
Test: cell shape (eccentricity) Z-score vs DMSO control; higher = more elongated, M2-like morphology
Settings: 20 µM; 24 h; macrophage state: M0 (M-CSF)
Experimental: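 Primary human monocyte-derived macrophages (M-CSF differentiated, pooled from 4 donors, 5000 cells/well in 384-well plates) were treated with each compound at 20 uM for 24 h, then fixed and stained with phalloidin/DAPI and imaged on an Opera Phenix (6 fields, about 1000 cells/well). Cell eccentricity was measured with CellProfiler, and a Z-score (t-test) was computed against 4 DMSO control wells in the same row. Negative values mean round (M1-like) cells and positive values mean elongated (M2-like) cells; the paper's hit cutoffs are Z <= -4 (M1) and Z >= 6 (M2). Scale: negative = round, M1-like.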

| Structure (SMILES) | cell shape (Z-score) |
| --- | --- |
| C[C@H]1O[C@@H](O[C@H]2C[C@@H](O)[C@]3(CO)C4C(CC[C@]3(O)C2)[C@@]2(O)CC[C@H](C3=CC(=O)OC3)[C@@]2(C)C[C@H]4O)[C@@H](O)[C@@H](O)[C@H]1O (stereo partly drawn) | -0.886 |
| CCN1CC2(COC(=O)c3ccccc3N3C(=O)CC(C)C3=O)CCC(OC)C34C5CC6C(OC)CC(O)(C5C6OC)C(O)(C(OC)C23)C14 (stereo not drawn) | 2.9 |
| CC1(C)C2CC(=O)[C@]3(C)C(CC[C@@]4(C)[C@H](c5ccoc5)OC(=O)C5OC543)[C@@]2(C)[C@@H](O)C[C@H]1O (stereo partly drawn) | 1.75 |
| NCC(CC(=O)O)c1ccc(Cl)cc1 (stereo not drawn) | 0.0322 |
| O=[As](O)(O)c1ccc(Cc2ccc([As](=O)(O)O)cc2)cc1 | -2.05 |
| OC1CCCCC1N1CCC(c2ccccc2)CC1 (stereo not drawn) | 0.22 |
| CCc1c(C(=O)C(N)=O)c2c(OCC(=O)O)cccc2n1Cc1ccccc1 | 0.42 |
| c1cc(Cc2cnc[nH]2)ccn1 | 0.892 |
| N#CC(C#N)=NNc1ccc(OC(F)(F)F)cc1 | 0.853 |
| CCC1(c2ccc(N)cc2)CCC(=O)NC1=O (stereo not drawn) | -1.83 |
| NC1(c2ccccc2Cl)CCCCC1=O (stereo not drawn) | -0.0304 |
| CCc1c(C(=O)OC)ncc2[nH]c3cc(OC)c(OC)cc3c12 | 1.81 |
| COc1cc2c(cc1OC)[C@@]13CCN4CC5=CCOC6CC(=O)N2C1[C@H]6[C@H]5C[C@H]43 (stereo partly drawn) | 3.32 |
| CC(C)=CCCN1CCC(NC(=O)[C@](O)(c2ccccc2)C2CCCC2)CC1 | 1.18 |
| c1ccc2c(c1)OCC(C1=NCCN1)O2 (stereo not drawn) | 1.7 |
| COC(=O)C12CC3CC(C(C)O)C1N(CCc1c2[nH]c2ccc(OC)cc12)C3 (stereo not drawn) | 2.06 |
| Cc1cc2c(C(C)C)c(O)c(O)c(C=O)c2c(O)c1-c1c(C)cc2c(C(C)C)c(O)c(O)c(C=O)c2c1O | 0.971 and 2.41 |
| C#CC(C)(O)CC (stereo not drawn) | 0.924 |
| C[C@]1(C(=O)O)CCC[C@]2(C)c3cc(O)ccc3CC[C@@H]12 | 1.38 |
| CCC(C)C(=O)O[C@@H]1C[C@@]2(C)[C@H](c3ccoc3)OC(=O)CC23OC2(C)OC34[C@H](OC(=O)C(C)C)[C@@]3(O)[C@@H](OC(=O)C5(C)OC5C)[C@@]5(C)C[C@]3(O)[C@@](C)([C@H]5CC(=O)OC)C14O2 (stereo partly drawn) | -2.16 |

| Structure (SMILES) | cell shape (Z-score) |
| --- | --- |
| CCCCCCCCCOc1ccc2[nH]cc(CCN)c2c1 | -1.64 |
| N[C@H](CO)Cc1ccccc1 | -1.2 |
| COc1cc2c(cc1O)CCNC2C (stereo not drawn) | 0.68 |
| NC1C[C@H]1c1ccccc1 (stereo partly drawn) | 1.94 |
| CC(C)c1cccc(C(C)C)c1O | 3.46 |
| CCN1CC2(COC)CCC(O)C34C5CC6C(OC)CC(O)(C5C6O)C(C(OC)C23)C14 (stereo not drawn) | 1.47 ± 1.2 |
| O=c1cccc2n1C[C@@H]1CNC[C@H]2C1 | 1.02 |
| CCOC(=O)c1cc2c(cn1)[nH]c1ccccc12 | 2.92 |
| CC(C)NCC(O)c1ccc([N+](=O)[O-])cc1 (stereo not drawn) | -1.7 |
| CCN1C[C@]2(OC(=O)c3ccccc3NC(C)=O)CCC(OC)[C@]34C1[C@H](CC23)[C@@]1(O)CC(OC)[C@H]2CC4C1(O)[C@H]2OC (stereo partly drawn) | 0.943 |
| CC(CCc1ccc(O)cc1)O[C@@H]1O[C@H](CO[C@H]2OC[C@](O)(CO)[C@H]2O)[C@@H](O)[C@H](O)[C@H]1O (stereo partly drawn) | 1.67 |
| COc1cc2c(cc1OC)[C@@H]1C(=O)c3ccc(OC)c(CC=C(C)C)c3O[C@@H]1CO2 | -0.546 |
| O[C@H]1CC2CCCC(C1)N2Cc1ccccc1 (stereo not drawn) | 0.751 |
| Cc1ccccc1-n1c(Cn2cnc3c(N)ncnc32)nc2cccc(C)c2c1=O | 3.87 |
| COC(=O)[C@@H]1C[C@H](OC(C)=O)C(=O)[C@H]2[C@@]1(C)CC[C@H]1C(=O)O[C@H](c3ccoc3)C[C@]21C | 2.72 |
| C=C1C(=O)O[C@@H]2[C@H]3C(=C)[C@@H](O)C[C@H]3C(=C)C[C@@H](O)[C@@H]12 | -1.82 |
| c1ccc2c(c1)[I+]c1ccccc1-2 | -7.52 |
| O=C1C2CCN(CC2)C1(CO)CO | 2.31 |
| CCOc1ccccc1-n1c(C(C)N2CCN(C(=O)COc3ccc(Cl)cc3)CC2)nc2ccccc2c1=O (stereo not drawn) | 6.52 |
| COc1cc2ccc(=O)oc2c2ccoc12 | 5.77 |

| Structure (SMILES) | cell shape (Z-score) |
| --- | --- |
| CN1CCN(c2ccc3ccccc3n2)CC1 | -0.134 |
| CC[C@H]1C2CC3[C@@H]4N(C)c5ccccc5[C@]45C[C@@H](C2C5O)N3[C@@H]1O (stereo partly drawn) | 0.277 |
| CCCCCCN1CCN(c2cccc(Cl)c2)CC1 | -0.27 |
| CCOC(=O)c1cncn1C(C)c1ccccc1 (stereo not drawn) | 1.75 |
| C=C1[C@]23C(=O)O[C@@H](C)[C@]2(O)C(=O)O[C@@]1(C)[C@H](OC(C)=O)C1=C(C)[C@@]2(C=CC(=O)OC2(C)C)CCC13C (stereo partly drawn) | 3.16 |
| O=[N+]([O-])O[C@@H]1CO[C@H]2[C@@H]1OC[C@@H]2O | -0.819 |
| CC(=O)O[C@H]1C[C@H](O[C@H]2[C@@H](O)C[C@H](O[C@H]3[C@@H](O)C[C@H](O[C@H]4CC[C@@]5(C)C(CCC6C5C[C@@H](O)[C@]5(C)[C@@H](C7=CC(=O)OC7)CC[C@]65O)C4)O[C@@H]3C)O[C@@H]2C)O[C@H](C)[C@H]1O[C@@H]1O[C@H](CO)[C@@H](O)[C@H](O)[C@H]1O (stereo partly drawn) | 1.67 |
| COc1cc([C@@H]2c3cc4c(cc3[C@H](O)[C@H]3COC(=O)[C@@H]23)OCO4)cc(OC)c1OC | -0.875 |
| CC12CCC3C(CCC4C(=O)C(=O)CCC43C)C1CCC2=O (stereo not drawn) | 3.82 |
| O=C(Cc1ccc(Cl)c(Cl)c1)N1CCCCC1CN1CCCC1 (stereo not drawn) | -0.746 |
| Cc1ncsc1CCCl | 1.98 |
| Fc1ccc(C(OCCN2CCN(CC=Cc3ccccc3)CC2)c2ccc(F)cc2)cc1 | -4.91 |
| CC1(C)C(=O)C=C[C@@]2(C)C1C(=O)C(=O)[C@]1(C)C2CC[C@@]2(C)[C@H](c3ccoc3)C[C@H]3O[C@]321 (stereo partly drawn) | -0.853 |
| CC(=O)OC[C@]12CCC(C)=CC1O[C@@H]1[C@H](O)[C@@H](O[C@H]3O[C@H](CO)[C@@H](O)[C@H](O)[C@H]3O)[C@@]2(C)C12CO2 (stereo partly drawn) | 1.02 |
| COC(=O)[C@@]12C(=O)C(C)C(=O)[C@]1(C)C(C)=C[C@H]1[C@]3(C)CC[C@H](OC(C)=O)C(C)(C)[C@H]3CC[C@@]12C (stereo partly drawn) | 2.25 |
| CCCCOC(=O)c1ccccc1C(=O)OCCCC | 1.33 |
| C[N+]1(C)C2CC(OC(=O)[C@@H](CO)c3ccccc3)CC1C1OC12 (stereo partly drawn) | 2.03 |
| CC(=O)Oc1ccc(/C=C/c2cc(OC(C)=O)cc(OC(C)=O)c2)cc1 | -1.46 |

Source: the supplement of paper PMC7858590
